Test results as given in PubChem BioAssay AID1487 (National Center for Advancing Translational Sciences (NCATS), 2009).
Values joined by “and” are separate entries in the source; they are usually repeats but may differ in a detail not shown here. Equal values may be shown once. The list shows a part of the results. Shown are side measurements of this screen, not its main read-out; they come without a call. Compounds called inactive in the main read-out are mostly missing here. Potencies come from curve fits of mixed quality, noted in brackets.

Test: qHTS Assay for Modulators of Lamin A Splicing
Details: HeLa LMNA splicing GFP/RFP minigene ratio, 48 h
Summary of the method: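 S3 HeLa stable clones carrying a lamin A-EGFP splicing minigene plus DsRed2 were seeded at 600 cells/well in Opti-MEM with 2% FBS, pin-dosed and incubated 48 h at 37°C. Acumen cytometry (488 nm) gave the GFP/RFP total-intensity ratio.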

[1] = measured here: RFP viability control channel
[2] = measured here: GFP splicing reporter channel

Row | Compound | AC50 [1] | AC50 [2]
1 | CC(C)OC(=O)CC(=O)CSc1nc(-c2ccc(F)cc2)cc(-c2ccccc2)c1C#N | 12.6 µM [rising, partial curve, poor fit] | –
2 | O=C(Nc1ccc(F)cc1)c1cnc(-c2ccccc2)nc1-c1ccccc1 | 17.8 µM [falling, partial curve] | 15.8 µM [falling, single point]
3 | Cc1csc(N(C(=O)c2cccc(S(=O)(=O)N(C)C)c2)c2ccccc2)n1 | 35.5 µM [rising, single point] | –
4 | O=[N+]([O-])c1cc(S(=O)(=O)c2ccc(N3CCCCC3)c([N+](=O)[O-])c2)ccc1N1CCCCC1 | 4.47 µM [rising, full curve] | 2.82 µM [rising, full curve]
5 | COc1cccc(/C=N/NC(=O)c2ccc(-c3ccccc3)cc2)c1O | 5.01 µM [rising, full curve, poor fit] | –
6 | C#C[C@]1(O)CC[C@H]2C3CCC4=Cc5oncc5CC4(C)C3CCC21C (some centres undefined) | 0.178 µM [rising, full curve, poor fit] | 0.178 µM [rising, full curve]
7 | O=C(Cn1ncn2c(cc3ccccc32)c1=O)NCc1ccco1 | 11.2 µM [falling, partial curve, poor fit] | –
8 | Cc1ccc(-n2nnnc2SCC(=O)N2c3ccccc3NC(=O)C2(C)C)cc1 | – | 11.2 µM [rising, single point]
9 | CCOC(=O)/C(=N\Nc1ccc(C(C)=O)cc1)c1csc(Nc2ccccc2)n1 | 2.82 µM [falling, full curve] | –
10 | O=S1(=O)c2cccc3cccc(c23)N1Cc1nnc(-c2ccccc2Br)o1 | 5.62 µM [rising, full curve] | 2.82 µM [rising, full curve, poor fit]
11 | O=C(CSc1ncccc1C(=O)Oc1ccccc1Cl)Nc1ccccc1Cl | 1.41 µM [falling, partial curve] | –
12 | CC(C)Nc1nc(NC(C)C)nc(N(C#N)CCOc2ccc(Cl)cc2Cl)n1 | 35.5 µM [rising, single point] | –
13 | CN(C)CCC=C1c2ccccc2C=Cc2ccccc21 | – | 28.2 µM [falling, partial curve, poor fit]
14 | O=C(CSc1nnc(-c2ccccc2O)n1Cc1ccccc1)NNC(=O)c1ccccc1O | 35.5 µM [rising, single point] | –
15 | CC(=O)NC1=NN(C(C)=O)C(C)(c2ccc(Cl)s2)S1 (centres undefined) | 3.16 µM [rising, full curve] | –
16 | CC1CC(N(C(=O)c2ccc(Cl)cc2)c2ccccc2)c2ccccc2N1C(=O)c1ccco1 (centres undefined) | 35.5 µM [rising, single point] | –
17 | CCCCNc1nnc(SCC(=O)c2c[nH]c3ccccc23)s1 | 25.1 µM [rising, partial curve, poor fit] | 5.62 µM [rising, partial curve, poor fit]
18 | CO[C@]1(NC(=O)[C@H](C(=O)O)c2ccc(O)cc2)C(=O)N2C(C(=O)O)=C(CSc3nnnn3C)CO[C@H]21 | – | 0.0316 µM [rising, full curve, poor fit]
19 | O=C(OCC#CCSc1nnc(-c2ccc(Br)cc2)o1)c1cccs1 | 12.6 µM [rising, single point] | 11.2 µM [rising, single point]
20 | O=C(Nc1ccc(C(O)(C(F)(F)F)C(F)(F)F)cc1)c1ccc(Cl)c([N+](=O)[O-])c1 | 35.5 µM [rising, partial curve] | –
21 | O=S(=O)(c1ccc2ccccc2c1)N(CC(O)CN1CCOCC1)c1ccccc1 (centres undefined) | – | 6.31 µM [rising, partial curve]
22 | O=C(Nc1ccc2c(c1)OCO2)c1ccc(Br)c(S(=O)(=O)N2CCCC2)c1 | 5.62 µM [rising, full curve] | –
23 | CN(C)/N=N\c1nc[nH]c1C(N)=O | 0.00631 µM [falling, full curve] | 0.01 µM [falling, full curve]
24 | CN(C)S(=O)(=O)N1CCN(S(=O)(=O)c2ccc3ccccc3c2)CC1 | 7.94 µM [rising, partial curve, poor fit] | –
25 | CCOc1ccc(-n2c(O)c(/C=N/NC(=O)C3COc4ccccc4O3)c3ccccc3c2=O)cc1 (centres undefined) | 15.8 µM [rising, single point] | –
26 | O=C(COc1ccc(F)cc1)OCc1cc(=O)n2nc(-c3cccs3)sc2n1 | – | 0.00355 µM [falling, full curve, poor fit]
27 | O=C(CN1C(=O)c2ccccc2C1=O)Nc1cc([N+](=O)[O-])ccc1O | 0.0398 µM [falling, full curve] | 0.1 µM [falling, full curve, poor fit]
28 | Cc1ccccc1NC(=S)NCCc1ccccc1 | 31.6 µM [rising, single point] | –

Row | Compound | AC50 [1] | AC50 [2]
29 | COc1ccc(CN2C(=O)/C(=C/c3ccncc3)SC2=S)cc1 | 14.1 µM [rising, partial curve] | 11.2 µM [rising, partial curve, poor fit]
30 | Cc1onc(-c2ccccc2Cl)c1C(=O)Nc1sc2c(c1C(N)=O)CCC(C)C2 (centres undefined) | 28.2 µM [rising, single point] | 20 µM [rising, single point]
31 | COc1ccc(CCn2c(-c3ccco3)nc3nc4ccccc4nc32)cc1OC | 20 µM [rising, partial curve, poor fit] | –
32 | CCOC(=O)N1CCC(N2CCN(S(=O)(=O)c3ccc4ccccc4c3)CC2)CC1 | 22.4 µM [rising, single point] | –
33 | COCCn1c(SCc2nnc(-c3ccccc3)o2)nc2sc3c(c2c1=O)CCC3 | – | 12.6 µM [rising, single point]
34 | CCN(CC)S(=O)(=O)c1cc(C)c(C)cc1Br | 35.5 µM [rising, single point] | –
35 | Cc1ccc(NC(=O)Cn2cccc2C2=NC(c3ccccc3)CO2)cc1C (centres undefined) | 15.8 µM [rising, single point] | –
36 | CCN(CC)C(=O)c1ccc(/C=C/c2c[nH]c3ccccc23)[n+](C)c1 | 8.91 µM [rising, partial curve, poor fit] | –
37 | COc1cc(C(=O)OCC(C)=O)ccc1OCc1c(C)noc1C | 7.94 µM [rising, partial curve, poor fit] | –
38 | Cc1cccc(C)c1NC(=O)[C@H](C)N | 1.58 µM [falling, single point] | 0.00398 µM [falling, full curve, poor fit]
39 | CCOC(=O)c1ccc(NCc2nc3ccccc3[nH]2)cc1 | 17.8 µM [rising, single point] | 20 µM [rising, single point]
40 | NS(=O)(=O)c1cc2c(cc1Cl)NCNS2(=O)=O | 0.794 nM [falling, full curve, poor fit] and 4.47 nM [falling, full curve, poor fit] | –
41 | Cc1ccc(NC(=O)CSc2nnc(-c3n[nH]c4ccccc34)n2-c2ccccc2)c(C)c1 | – | 35.5 µM [falling, single point]
42 | Cc1ccc(NC(=O)c2scc3c2CCCC3)cc1 | 25.1 µM [rising, single point] | 22.4 µM [rising, single point]
43 | C[N+]1(C)CCC(=C(c2ccccc2)c2ccccc2)CC1 | 14.1 µM [falling, single point] | 0.000891 µM [falling, full curve, poor fit]
44 | COc1ccccc1N1CCN(C(=O)CSc2ncnc3scc(-c4ccccc4)c23)CC1 | 17.8 µM [rising, partial curve] | 14.1 µM [rising, partial curve, poor fit]
45 | O=C(Nc1ccc(Cl)cc1)c1ccc(-n2cccn2)c([N+](=O)[O-])c1 | 14.1 µM [rising, single point] | –
46 | O=c1cc(-c2ccccc2)n2c(SCc3ccccc3Cl)nnc2[nH]1 | 0.0398 µM [rising, full curve] | –
47 | CN1C(c2ccc(F)cc2)=CS/C1=C(\C#N)c1nnc2n1-c1ccccc1SC2 | 12.6 µM [rising, partial curve] | 6.31 µM [rising, partial curve]
48 | COC(=O)c1c(C)[nH]c(C(=O)OCC(=O)NCC(C)C)c1C | 14.1 µM [rising, single point] | –
49 | CCOC(=O)N1CCN(C(=O)c2ccc3nc4ccc(Cl)cc4c(=O)n3c2)CC1 | 14.1 µM [rising, partial curve] | –
50 | Cc1c(Cl)cccc1NC(=O)CSc1nc(=O)n(Cc2ccco2)c2c1CCC2 | – | 35.5 µM [falling, partial curve]
51 | O=S(=O)(c1ccc(N2CCOCC2)nc1)N(Cc1ccccn1)Cc1ccccn1 | 0.447 µM [falling, full curve, poor fit] | –
52 | COc1cccc(NC(=O)/C=C/c2ccccc2[N+](=O)[O-])c1 | 20 µM [rising, single point] | 17.8 µM [rising, single point]
53 | CCOC(=O)/C(=C/C=C1\Sc2cc(C)c(C)cc2N1CC)C(C)=O | 31.6 µM [falling, single point] | 35.5 µM [falling, single point]
54 | O=C(O)c1cc2ccc3ccccc3c2oc1=O | 4.47 µM [rising, full curve, poor fit] | –
55 | Cc1ccc(CCNC(=O)c2ccc3c(c2)nc2n3CCOC2)cc1 | 1.58 µM [falling, partial curve] | 3.16 µM [falling, single point]
